# This is one part of the list. The data scatter; read single values as rough.
# Amino acid sequences for entries named in this document (tags omitted). A change or cut given only in a name is not applied to a line headed by its entry. Residues count along the entry.
# UniProt Q96ST3: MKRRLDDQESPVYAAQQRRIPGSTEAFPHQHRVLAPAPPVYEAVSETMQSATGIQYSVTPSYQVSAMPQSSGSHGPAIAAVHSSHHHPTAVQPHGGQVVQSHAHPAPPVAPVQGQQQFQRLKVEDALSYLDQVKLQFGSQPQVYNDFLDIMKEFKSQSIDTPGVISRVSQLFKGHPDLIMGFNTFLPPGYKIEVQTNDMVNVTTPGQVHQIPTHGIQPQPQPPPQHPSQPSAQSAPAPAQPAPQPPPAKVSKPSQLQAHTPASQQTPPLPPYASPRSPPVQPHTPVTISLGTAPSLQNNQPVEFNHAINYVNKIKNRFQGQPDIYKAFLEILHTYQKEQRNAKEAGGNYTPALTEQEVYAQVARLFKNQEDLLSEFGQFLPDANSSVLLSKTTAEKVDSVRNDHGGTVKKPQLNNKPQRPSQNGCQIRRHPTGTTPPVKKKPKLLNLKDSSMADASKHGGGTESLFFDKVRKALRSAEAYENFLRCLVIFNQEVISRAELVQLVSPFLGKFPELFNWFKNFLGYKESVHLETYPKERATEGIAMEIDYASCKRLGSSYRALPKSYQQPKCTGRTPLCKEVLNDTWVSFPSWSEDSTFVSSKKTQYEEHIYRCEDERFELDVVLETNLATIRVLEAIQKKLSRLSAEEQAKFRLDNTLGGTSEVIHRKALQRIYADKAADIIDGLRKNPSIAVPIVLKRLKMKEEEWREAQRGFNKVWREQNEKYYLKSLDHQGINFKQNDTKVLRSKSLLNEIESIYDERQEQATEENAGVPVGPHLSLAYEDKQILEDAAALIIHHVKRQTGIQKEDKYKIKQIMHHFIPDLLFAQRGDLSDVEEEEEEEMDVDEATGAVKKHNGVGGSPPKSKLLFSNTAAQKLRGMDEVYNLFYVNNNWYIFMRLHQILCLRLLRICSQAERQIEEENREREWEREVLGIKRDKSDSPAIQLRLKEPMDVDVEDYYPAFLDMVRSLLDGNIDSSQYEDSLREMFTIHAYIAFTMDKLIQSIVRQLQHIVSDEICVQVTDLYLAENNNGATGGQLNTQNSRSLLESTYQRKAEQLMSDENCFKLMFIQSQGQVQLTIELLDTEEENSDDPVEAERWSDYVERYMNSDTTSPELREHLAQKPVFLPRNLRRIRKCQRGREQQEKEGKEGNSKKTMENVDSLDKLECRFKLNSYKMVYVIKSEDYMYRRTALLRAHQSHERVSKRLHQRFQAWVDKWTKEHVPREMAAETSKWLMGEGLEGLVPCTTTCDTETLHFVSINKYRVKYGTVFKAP
# UniProt Q562F6: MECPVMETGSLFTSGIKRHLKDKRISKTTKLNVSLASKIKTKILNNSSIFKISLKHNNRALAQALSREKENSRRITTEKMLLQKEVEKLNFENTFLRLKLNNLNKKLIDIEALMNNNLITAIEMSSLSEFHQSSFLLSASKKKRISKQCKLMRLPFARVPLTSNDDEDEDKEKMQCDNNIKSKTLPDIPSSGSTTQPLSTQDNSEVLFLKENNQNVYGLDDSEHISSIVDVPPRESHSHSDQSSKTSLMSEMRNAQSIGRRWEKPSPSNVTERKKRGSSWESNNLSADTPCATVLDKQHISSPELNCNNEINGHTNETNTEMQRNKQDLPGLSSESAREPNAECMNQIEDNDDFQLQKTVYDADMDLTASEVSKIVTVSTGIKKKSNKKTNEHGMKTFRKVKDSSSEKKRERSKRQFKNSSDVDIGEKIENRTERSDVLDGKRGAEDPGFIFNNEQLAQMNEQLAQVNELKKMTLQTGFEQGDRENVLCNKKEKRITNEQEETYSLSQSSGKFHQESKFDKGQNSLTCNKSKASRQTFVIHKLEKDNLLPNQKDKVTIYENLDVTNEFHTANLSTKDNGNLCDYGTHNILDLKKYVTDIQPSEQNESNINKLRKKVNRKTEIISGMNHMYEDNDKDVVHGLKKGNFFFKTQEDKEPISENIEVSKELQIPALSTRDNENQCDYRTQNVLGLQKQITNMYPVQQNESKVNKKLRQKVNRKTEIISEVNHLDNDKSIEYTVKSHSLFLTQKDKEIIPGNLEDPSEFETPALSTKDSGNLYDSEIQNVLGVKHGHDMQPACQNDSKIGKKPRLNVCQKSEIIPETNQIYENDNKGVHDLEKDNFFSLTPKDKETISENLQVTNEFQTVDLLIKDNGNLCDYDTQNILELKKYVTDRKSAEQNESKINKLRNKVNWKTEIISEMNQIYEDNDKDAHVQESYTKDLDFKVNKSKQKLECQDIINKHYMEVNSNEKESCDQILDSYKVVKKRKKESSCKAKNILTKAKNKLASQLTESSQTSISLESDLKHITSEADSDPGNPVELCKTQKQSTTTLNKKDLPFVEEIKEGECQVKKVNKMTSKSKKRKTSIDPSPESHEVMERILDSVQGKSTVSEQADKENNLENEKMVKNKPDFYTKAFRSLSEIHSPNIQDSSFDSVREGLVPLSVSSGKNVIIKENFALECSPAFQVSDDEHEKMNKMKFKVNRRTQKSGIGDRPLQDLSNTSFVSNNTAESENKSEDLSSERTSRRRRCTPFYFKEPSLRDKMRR
# UniProt O43255: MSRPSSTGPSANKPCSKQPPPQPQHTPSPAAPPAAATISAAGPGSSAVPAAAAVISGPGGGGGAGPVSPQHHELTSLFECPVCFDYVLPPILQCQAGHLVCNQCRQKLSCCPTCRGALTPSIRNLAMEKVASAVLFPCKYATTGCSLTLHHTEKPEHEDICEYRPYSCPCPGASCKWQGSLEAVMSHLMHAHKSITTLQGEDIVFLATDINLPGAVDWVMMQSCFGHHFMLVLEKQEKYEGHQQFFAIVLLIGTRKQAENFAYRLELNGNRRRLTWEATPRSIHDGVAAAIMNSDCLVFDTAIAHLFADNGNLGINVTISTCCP
# UniProt Q9Y3L3, 325-349: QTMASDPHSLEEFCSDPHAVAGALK
# UniProt O43290: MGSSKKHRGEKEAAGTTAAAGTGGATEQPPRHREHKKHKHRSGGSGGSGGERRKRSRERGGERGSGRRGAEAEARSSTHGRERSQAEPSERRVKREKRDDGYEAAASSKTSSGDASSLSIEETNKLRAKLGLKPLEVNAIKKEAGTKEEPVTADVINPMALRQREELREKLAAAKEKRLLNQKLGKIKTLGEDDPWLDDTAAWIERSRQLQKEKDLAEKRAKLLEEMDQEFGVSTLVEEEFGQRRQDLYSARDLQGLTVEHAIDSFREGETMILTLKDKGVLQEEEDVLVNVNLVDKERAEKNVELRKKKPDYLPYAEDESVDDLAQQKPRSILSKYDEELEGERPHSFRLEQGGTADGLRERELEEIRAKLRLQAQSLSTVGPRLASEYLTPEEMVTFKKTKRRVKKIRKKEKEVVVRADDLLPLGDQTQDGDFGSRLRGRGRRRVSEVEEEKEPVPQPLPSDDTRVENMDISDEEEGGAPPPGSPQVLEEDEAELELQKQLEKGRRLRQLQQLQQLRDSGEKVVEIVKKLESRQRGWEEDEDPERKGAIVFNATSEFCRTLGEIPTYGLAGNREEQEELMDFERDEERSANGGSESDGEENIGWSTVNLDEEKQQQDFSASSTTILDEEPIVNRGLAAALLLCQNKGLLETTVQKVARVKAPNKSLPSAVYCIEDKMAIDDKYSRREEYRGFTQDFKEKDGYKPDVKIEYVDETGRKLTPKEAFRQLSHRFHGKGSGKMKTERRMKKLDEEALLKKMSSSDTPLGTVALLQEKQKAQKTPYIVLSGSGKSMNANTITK
# UniProt Q15437: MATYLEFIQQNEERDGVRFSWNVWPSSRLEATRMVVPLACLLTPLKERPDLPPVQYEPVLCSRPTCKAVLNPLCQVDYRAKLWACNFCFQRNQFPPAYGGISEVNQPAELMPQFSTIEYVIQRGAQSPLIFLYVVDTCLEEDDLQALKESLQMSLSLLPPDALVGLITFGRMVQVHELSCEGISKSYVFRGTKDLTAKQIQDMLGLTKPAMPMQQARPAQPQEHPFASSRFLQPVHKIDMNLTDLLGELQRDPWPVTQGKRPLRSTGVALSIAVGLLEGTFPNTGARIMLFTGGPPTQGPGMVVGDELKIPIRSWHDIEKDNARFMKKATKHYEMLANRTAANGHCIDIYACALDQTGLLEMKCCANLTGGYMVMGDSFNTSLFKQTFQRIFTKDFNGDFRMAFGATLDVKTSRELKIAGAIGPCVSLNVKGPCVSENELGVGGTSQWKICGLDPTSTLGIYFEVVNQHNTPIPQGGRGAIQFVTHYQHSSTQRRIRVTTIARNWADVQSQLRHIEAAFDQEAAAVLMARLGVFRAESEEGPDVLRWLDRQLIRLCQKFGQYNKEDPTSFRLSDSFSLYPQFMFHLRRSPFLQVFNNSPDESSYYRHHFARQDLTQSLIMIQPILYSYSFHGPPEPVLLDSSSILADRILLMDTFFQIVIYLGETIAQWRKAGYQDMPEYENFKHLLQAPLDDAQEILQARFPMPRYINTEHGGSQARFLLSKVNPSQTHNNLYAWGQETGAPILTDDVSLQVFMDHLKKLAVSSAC
# UniProt O95248: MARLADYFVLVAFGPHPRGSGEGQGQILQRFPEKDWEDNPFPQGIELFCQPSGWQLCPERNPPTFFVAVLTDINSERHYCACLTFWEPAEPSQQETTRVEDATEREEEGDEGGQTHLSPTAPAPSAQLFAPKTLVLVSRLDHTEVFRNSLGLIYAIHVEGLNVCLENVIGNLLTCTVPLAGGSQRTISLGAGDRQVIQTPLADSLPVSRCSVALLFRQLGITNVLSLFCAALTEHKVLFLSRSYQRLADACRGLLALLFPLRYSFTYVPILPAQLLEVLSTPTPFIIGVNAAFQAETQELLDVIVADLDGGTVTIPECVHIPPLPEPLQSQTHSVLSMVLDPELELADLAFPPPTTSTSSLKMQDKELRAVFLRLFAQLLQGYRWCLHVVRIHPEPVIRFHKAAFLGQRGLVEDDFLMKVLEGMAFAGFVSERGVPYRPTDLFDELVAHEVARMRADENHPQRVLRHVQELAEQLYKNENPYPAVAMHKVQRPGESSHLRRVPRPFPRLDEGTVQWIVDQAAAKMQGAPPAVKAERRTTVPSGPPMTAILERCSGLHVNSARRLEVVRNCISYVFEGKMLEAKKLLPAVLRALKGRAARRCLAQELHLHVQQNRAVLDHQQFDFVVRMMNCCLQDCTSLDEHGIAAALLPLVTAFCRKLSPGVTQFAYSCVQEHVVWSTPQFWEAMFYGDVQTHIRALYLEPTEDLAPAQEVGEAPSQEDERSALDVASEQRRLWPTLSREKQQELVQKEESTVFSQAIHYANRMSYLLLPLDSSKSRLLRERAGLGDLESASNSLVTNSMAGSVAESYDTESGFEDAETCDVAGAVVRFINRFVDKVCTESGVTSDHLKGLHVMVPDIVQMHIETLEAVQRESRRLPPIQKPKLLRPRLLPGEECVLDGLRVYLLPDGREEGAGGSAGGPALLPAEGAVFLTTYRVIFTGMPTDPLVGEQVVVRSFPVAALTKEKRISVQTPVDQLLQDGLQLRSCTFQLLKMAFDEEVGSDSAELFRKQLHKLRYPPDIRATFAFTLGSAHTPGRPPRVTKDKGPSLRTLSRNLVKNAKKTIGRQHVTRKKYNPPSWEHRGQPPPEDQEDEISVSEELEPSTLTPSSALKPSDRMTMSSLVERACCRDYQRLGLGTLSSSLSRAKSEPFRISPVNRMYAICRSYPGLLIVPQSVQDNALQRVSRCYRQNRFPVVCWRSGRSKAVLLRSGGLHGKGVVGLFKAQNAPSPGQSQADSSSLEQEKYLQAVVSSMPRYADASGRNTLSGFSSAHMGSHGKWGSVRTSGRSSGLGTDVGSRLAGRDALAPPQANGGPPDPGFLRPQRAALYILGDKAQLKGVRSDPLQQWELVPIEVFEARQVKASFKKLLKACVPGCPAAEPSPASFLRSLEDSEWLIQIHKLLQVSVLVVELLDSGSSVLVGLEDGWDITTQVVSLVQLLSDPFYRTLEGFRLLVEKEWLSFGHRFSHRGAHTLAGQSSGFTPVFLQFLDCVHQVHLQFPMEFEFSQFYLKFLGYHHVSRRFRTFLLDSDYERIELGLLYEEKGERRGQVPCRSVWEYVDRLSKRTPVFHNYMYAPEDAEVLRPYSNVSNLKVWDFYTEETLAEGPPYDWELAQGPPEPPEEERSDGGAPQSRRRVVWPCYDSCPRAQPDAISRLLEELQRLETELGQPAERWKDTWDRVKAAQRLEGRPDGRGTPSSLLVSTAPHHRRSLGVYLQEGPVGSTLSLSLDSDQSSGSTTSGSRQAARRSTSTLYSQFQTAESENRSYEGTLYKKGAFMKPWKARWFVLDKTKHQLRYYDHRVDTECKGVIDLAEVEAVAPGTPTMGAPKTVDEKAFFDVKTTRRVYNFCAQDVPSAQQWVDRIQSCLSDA
# UniProt Q86VW0, 614-639: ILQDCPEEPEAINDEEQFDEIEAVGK
# How the values were obtained:
# [1] = compound: ClCC(=O)N[C@@H]1CCCc2ccccc12; assay: log2 mean competition ratio of IA-DTB cysteine labelling (DMSO/compound) (log2 ratio); higher = stronger cysteine engagement by compound; settings: treatment time: 4 h, cell line lysate: HEK293T
# Protocol: (§1)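 IA-DTB competitive cysteine chemoproteomics in HEK293T RIPA lysate. Lysates were treated with compound 29 or 30 at 50 or 200 µM for 4 h, then IA-DTB (500 µM, 1 h), trypsin-digested, NeutrAvidin-enriched and analysed by diaPASEF. Competition ratio = intensity DMSO / intensity compound (n=4 treated, n=64 DMSO); binding: mean log2 CR ≥ 1 and p ≤ 0.05 plus QC filters. Target is the cysteine site.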
# [2] = compound: ClCC(=O)N[C@H]1CCCc2ccccc12; assay: as above; settings: treatment time: 4 h, cell line lysate: HEK293T
# Protocol: as §1
Target,log2 mean competition ratio ([1]; 50 µM),log2 mean competition ratio ([1]; 200 µM),log2 mean competition ratio ([2]; 50 µM),log2 mean competition ratio ([2]; 200 µM)
SEC62 C55 (UniProt Q99442),-0.214,-0.246,0.341,-0.0315
SH3RF1 C107 (UniProt Q7Z6J0),0.169,-0.111,0.0351,0.152
SIN3A C910 (UniProt Q96ST3),-0.22,0.0292,-0.492,0.0672
SIK3 C333,-0.164,0.107,-0.16,0.00662
SGO2 C954 (UniProt Q562F6),-0.358,0.192,0.14,0.449
SHPRH C845 (UniProt Q149N8),0.156,0.0452,-0.322,0.0336
SIAH2 C15 (UniProt O43255),0.343,0.288,0.00852,0.0338
SETD5 C1050,-0.0299,-0.0901,0.134,0.00391
SH3GL1 C96 (UniProt Q99961),0.308,0.304,0.356,0.391
SIN3A C551 (UniProt Q96ST3),-0.134,0.407,0.0185,0.169
SHMT1 C68,0.175,-0.0465,-0.134,-0.166
SGO2 C176 (UniProt Q562F6),-0.151,0.148,-0.267,0.0747
SCRN3 C102 (UniProt Q0VDG4),-0.0696,-0.0356,0.383,-0.0133
SH3BP1 C338 (UniProt Q9Y3L3),-0.608,-0.01,0.265,-0.0603
SAE1 C214,0.0116,-0.113,0.426,-0.0842
SART1 C674 (UniProt O43290),-0.0658,-0.184,-0.0165,-0.0858
SEC23A C61 (UniProt Q15436),-0.107,0.467,-0.438,0.109
SANBR C478,0.349,0.253,0.254,0.253
SEC23B C74 (UniProt Q15437),0.152,-0.0886,-0.362,0.121
SCRN3 C143 (UniProt Q0VDG4),0.313,0.884,0.203,0.949
SEPTIN6 C432 (UniProt Q14141),0.104,-0.0208,0.287,0.141
SBF1 C839 (UniProt O95248),-0.0809,-0.227,0.441,-0.272
SEC23B C434 (UniProt Q15437),-0.406,-0.119,-0.635,-0.133
SESTD1 C618 (UniProt Q86VW0),-0.253,-0.168,-0.821,-0.279

# 2 records drawn at random from those above, as already listed:
Target,log2 mean competition ratio ([1]; 50 µM),log2 mean competition ratio ([1]; 200 µM),log2 mean competition ratio ([2]; 50 µM),log2 mean competition ratio ([2]; 200 µM)
SGO2 C954 (UniProt Q562F6),-0.358,0.192,0.14,0.449
SANBR C478,0.349,0.253,0.254,0.253
